Our source for the binding values is publication PMC12617251.

These are yes or no findings as the source states them, for the method shown.

This experiment addresses CLIPPER_(K715A) (CLIPPER domain variant lacking the isopeptide-forming lysine, residues 708-828 of B9T28_05395) (Acinetobacter silvestris ANC 4999). The experiment is described as follows: SEC; EnRich SEC 650 10 x 300 column, equilibrated with PBS (for CD and proteolysis) or TBS (20 mM Tris, 100 mM NaCl, pH 8.0, for crystallization); one primary peak per polypeptide; both purified.

As to “CLIPPER_(K715A) (CLIPPER domain variant lacking the isopeptide-forming lysine, residues 708-828 of B9T28_05395) (from UniProt A0A1Y3CHT7 708-828) (domain or fragment)”, the binding result is on record as “no binding”.
